Reference: paper PMC10141581

Chains of the proteins cited; added tags and fusions are not shown. Residues count along the entry.
UniProt P63104, residues 1-230: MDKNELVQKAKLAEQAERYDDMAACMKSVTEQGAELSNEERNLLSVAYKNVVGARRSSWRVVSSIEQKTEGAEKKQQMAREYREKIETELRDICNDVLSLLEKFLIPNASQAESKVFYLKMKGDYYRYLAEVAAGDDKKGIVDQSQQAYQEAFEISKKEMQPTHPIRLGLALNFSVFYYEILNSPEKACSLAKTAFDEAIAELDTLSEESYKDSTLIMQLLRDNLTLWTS

Molecular target: 14-3-3ζ WT (human) (UniProt P63104)
Assay: affinity purification with mass spectrometry; 14-3-3ζ (WT, pSer58, nhpSer58) covalently coupled to NHS-Sepharose, incubated with HEK293T lysate 2 h at 25 °C (50 mM Tris pH 7.5, 150 mM NaCl, 50 nM Calyculin A), washed with 350 mM NaCl, eluted with 6 M guanidine-HCl; label-free quantitative MS; only the target purified

| Binder | binding |
| --- | --- |
| Bcl2-associated agonist of cell death (BAD) (protein, UniProt Q92934 1-168) MFQIPEFEPSEQEDSSSAERGLGPSPAGDGPSGSGKHHRQAPGLLWDASHQQEQPTSSSHHGGAGAVEIRSRHSSYPAGTEDDEGMGEEPSPFRGRSRSAPPNLWAAQRYGRELRRMSDEFVDSFKKGLPRPKSAGTATQMRQSSSWTRVFQSWWDRNLGRGSSAPSQ | binds |
| TRIM11 (protein, UniProt Q96F44 1-468) MAAPDLSTNLQEEATCAICLDYFTDPVMTDCGHNFCRECIRRCWGQPEGPYACPECRELSPQRNLRPNRPLAKMAEMARRLHPPSPVPQGVCPAHREPLAAFCGDELRLLCAACERSGEHWAHRVRPLQDAAEDLKAKLEKSLEHLRKQMQDALLFQAQADETCVLWQKMVESQRQNVLGEFERLRRLLAEEEQQLLQRLEEEELEVLPRLREGAAHLGQQSAHLAELIAELEGRCQLPALGLLQDIKDALRRVQDVKLQPPEVVPMELRTVCRVPGLVETLRRFRGDVTLDPDTANPELILSEDRRSVQRGDLRQALPDSPERFDPGPCVLGQERFTSGRHYWEVEVGDRTSWALGVCRENVNRKEKGELSAGNGFWILVFLGSYYNSSERALAPLRDPPRRVGIFLDYEAGHLSFYSATDGSLLFIFPEIPFSGTLRPLFSPLSSSPTPMTICRPKGGSGDTLAPQ | binds |

No constants are given. Whether binding was seen depends on the method and setting. In cells and extracts the contact can be indirect. Here binding means that the protein was enriched with, or labelled near, the bait; the list need not be complete.
